Our source for the binding values is article PMC12131583.

Sequences of proteins named here, by UniProt entry; tags and fusion partners are left off.
UniProt P17742: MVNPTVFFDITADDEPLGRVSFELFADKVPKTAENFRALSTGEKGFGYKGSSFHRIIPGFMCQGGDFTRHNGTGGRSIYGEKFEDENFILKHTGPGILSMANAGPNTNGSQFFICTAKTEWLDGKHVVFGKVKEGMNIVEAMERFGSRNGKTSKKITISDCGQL

This assay has as its target T1, HA-tagged PARP3 (PARP3-HA) (human) (UniProt Q9Y6F1).
T1 sequence: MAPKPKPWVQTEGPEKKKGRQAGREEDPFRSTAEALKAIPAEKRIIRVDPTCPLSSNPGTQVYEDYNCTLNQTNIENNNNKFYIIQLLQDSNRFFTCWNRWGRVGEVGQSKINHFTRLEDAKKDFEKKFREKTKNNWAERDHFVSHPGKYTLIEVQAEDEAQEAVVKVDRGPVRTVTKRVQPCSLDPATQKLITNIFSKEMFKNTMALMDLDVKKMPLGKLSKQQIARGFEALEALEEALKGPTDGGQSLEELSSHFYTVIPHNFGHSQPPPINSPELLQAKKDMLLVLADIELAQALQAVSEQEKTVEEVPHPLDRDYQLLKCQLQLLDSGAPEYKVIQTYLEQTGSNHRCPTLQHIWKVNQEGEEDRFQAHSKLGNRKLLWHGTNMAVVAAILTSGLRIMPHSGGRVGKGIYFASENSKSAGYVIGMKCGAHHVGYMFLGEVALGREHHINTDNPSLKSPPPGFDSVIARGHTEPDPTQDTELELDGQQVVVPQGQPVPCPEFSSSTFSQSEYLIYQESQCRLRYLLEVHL
Nature of the assay: co-IP; 500 ug precleared cell lysate in IP buffer (50 mM Hepes, 150 mM NaCl, 10% glycerol, 0.1% Triton X-100, 20 mM MgCl2, 1% EDTA), IP antibody at 4 C overnight, Protein A+G magnetic beads 3 to 4 h, western blot; cells and IP antibody of this experiment not stated.

Results are given in words; binding and its absence hold for the method and conditions named. In cells and extracts the contact can be indirect. Some results given as binding are weak or reduced against the parent protein; the word gives no strength. Sequences can lack the tags named with a protein.

Regarding “Ppia (as used in the Co-IP validation, Fig. 3D) (from UniProt P17742 1-164)”, the binding entry was “binds”.
